Measured data: PubChem BioAssay AID652243 (Drosophila RNAi Screening Center, 2013)

Aim: 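Knock-downs that decrease or increase androgen receptor reporter signal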 (primary screen)
Cells: Drosophila S2R+ cells
Knock-down reagent: long dsRNA against Drosophila genes
Timing: 72 h (48 h, then 24 h hormone)
Challenge: synthetic androgen R1881 at 10 nM for 24 h
Detection: 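Per-well raw luminescence of the androgen-driven firefly reporter and of the Renilla control, two replicates each, without normalisation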
Direction: firefly reporter light: higher = more light from androgen-responsive reporter; Renilla control light: higher = more constitutive control signal (cell number, transfection)
Active means: 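Hit when the log firefly-to-Renilla ratio dropped or increased by a fixed fold versus the mean of GFP or LacZ controls across duplicate plates; lowering cut given as 1.5 and as 3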
Meaning of the calls: active = hit: reporter lowered or raised; inactive = no hit
The screen tested about 24,000 reagents; shown is a random part of those that have a named target and a result. Over the whole deposit, 246 (1%) were called active. 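Plates not normalised; calls are printed but the firefly/Renilla ratio behind them is not deposited; fold cut for lowering reported inconsistently.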 Raw values vary from plate to plate and are shown uncorrected. Unmarked entries are inactive. Reagents against one gene are numbered here. The record does not give: the amount of reagent.

Silencing of Trf4 (TBP-related factor 4) came out at: firefly reporter light, replicate 1 = 8.38e5; firefly reporter light, replicate 2 = 7.16e5; Renilla control light, replicate 1 = 2.07e6; Renilla control light, replicate 2 = 1.59e6. Knock-down of CG15638 resulted in: firefly reporter light, replicate 1 = 2.14e5; firefly reporter light, replicate 2 = 2.62e5; Renilla control light, replicate 1 = 1.56e6; Renilla control light, replicate 2 = 1.83e6. Against eco (Establishment of cohesion), the entry reads firefly reporter light, replicate 1 = 1.12e6; firefly reporter light, replicate 2 = 9.94e5; Renilla control light, replicate 1 = 1.42e6; Renilla control light, replicate 2 = 1.70e6. Depletion of CG13196 came out at: firefly reporter light, replicate 1 = 2.57e5; firefly reporter light, replicate 2 = 1.83e5; Renilla control light, replicate 1 = 1.33e6; Renilla control light, replicate 2 = 1.27e6. CG31778 gave firefly reporter light, replicate 1 = 8.00e5; firefly reporter light, replicate 2 = 6.46e5; Renilla control light, replicate 1 = 2.43e6; Renilla control light, replicate 2 = 2.16e6. Knock-down of CG34417 #1 came out at: firefly reporter light, replicate 1 = 3.76e5; firefly reporter light, replicate 2 = 4.79e5; Renilla control light, replicate 1 = 3.96e6; Renilla control light, replicate 2 = 3.94e6.

After knock-down of CG34417 #2 the results were firefly reporter light, replicate 1 = 1.14e5; firefly reporter light, replicate 2 = 1.32e5; Renilla control light, replicate 1 = 9.18e5; Renilla control light, replicate 2 = 6.66e5. CG34417 #3 scored firefly reporter light, replicate 1 = 6.70e5; firefly reporter light, replicate 2 = 8.25e5; Renilla control light, replicate 1 = 7.21e5; Renilla control light, replicate 2 = 1.06e6. Depletion of CG10195 came out at: firefly reporter light, replicate 1 = 1.58e5; firefly reporter light, replicate 2 = 1.79e5; Renilla control light, replicate 1 = 2.00e6; Renilla control light, replicate 2 = 1.71e6. Against CG34171, the values are firefly reporter light, replicate 1 = 4.86e5; firefly reporter light, replicate 2 = 5.30e5; Renilla control light, replicate 1 = 1.79e6; Renilla control light, replicate 2 = 1.68e6. After knock-down of Tdg (Thymine DNA glycosylase) #1, the record shows firefly reporter light, replicate 1 = 8.92e5; firefly reporter light, replicate 2 = 6.01e5; Renilla control light, replicate 1 = 1.34e6; Renilla control light, replicate 2 = 5.40e5. Tdg (Thymine DNA glycosylase) #2 showed firefly reporter light, replicate 1 = 1.87e5; firefly reporter light, replicate 2 = 2.73e5; Renilla control light, replicate 1 = 3.41e6; Renilla control light, replicate 2 = 1.88e6.

After knock-down of Tdg (Thymine DNA glycosylase) #3 the results were firefly reporter light, replicate 1 = 7.91e5; firefly reporter light, replicate 2 = 5.84e5; Renilla control light, replicate 1 = 1.85e6; Renilla control light, replicate 2 = 2.07e6. For Vha100-3 (Vacuolar H[+] ATPase 100kD subunit 3), the entry reads firefly reporter light, replicate 1 = 1.54e5; firefly reporter light, replicate 2 = 1.40e5; Renilla control light, replicate 1 = 4.05e5; Renilla control light, replicate 2 = 4.52e5. Against aln (allnighter), the values are firefly reporter light, replicate 1 = 50461; firefly reporter light, replicate 2 = 56567; Renilla control light, replicate 1 = 6.62e5; Renilla control light, replicate 2 = 6.89e5. Against CG12990, the values are firefly reporter light, replicate 1 = 5.49e5; firefly reporter light, replicate 2 = 5.94e5; Renilla control light, replicate 1 = 4.15e6; Renilla control light, replicate 2 = 3.77e6.

2 of these entries, set out differently:
CG34417 #3
- firefly reporter light, replicate 1: 6.70e5
- firefly reporter light, replicate 2: 8.25e5
- Renilla control light, replicate 1: 7.21e5
- Renilla control light, replicate 2: 1.06e6

CG10195
- firefly reporter light, replicate 1: 1.58e5
- firefly reporter light, replicate 2: 1.79e5
- Renilla control light, replicate 1: 2.00e6
- Renilla control light, replicate 2: 1.71e6

The list goes on.
With knock-down of wat (waterproof) the results were firefly reporter light, replicate 1 = 2.63e5; firefly reporter light, replicate 2 = 1.77e5; Renilla control light, replicate 1 = 2.17e6; Renilla control light, replicate 2 = 3.03e6. CG13044 #1 showed firefly reporter light, replicate 1 = 2.62e5; firefly reporter light, replicate 2 = 2.43e5; Renilla control light, replicate 1 = 2.84e6; Renilla control light, replicate 2 = 1.90e6. With knock-down of CG13044 #2 the results were firefly reporter light, replicate 1 = 3.69e5; firefly reporter light, replicate 2 = 4.64e5; Renilla control light, replicate 1 = 1.65e6; Renilla control light, replicate 2 = 1.77e6. Against Tango1 (Transport and Golgi organization 1) #1, the values are firefly reporter light, replicate 1 = 1.33e6; firefly reporter light, replicate 2 = 9.15e5; Renilla control light, replicate 1 = 1.66e6; Renilla control light, replicate 2 = 1.20e6. Knock-down of Tango1 (Transport and Golgi organization 1) #2 came out at: firefly reporter light, replicate 1 = 5.78e5; firefly reporter light, replicate 2 = 4.58e5; Renilla control light, replicate 1 = 1.56e6; Renilla control light, replicate 2 = 1.06e6. After knock-down of CG13723, the record shows firefly reporter light, replicate 1 = 3.17e5; firefly reporter light, replicate 2 = 3.04e5; Renilla control light, replicate 1 = 2.99e6; Renilla control light, replicate 2 = 2.76e6.

With knock-down of Taf3 (TBP-associated factor 3) #1, the screen gave firefly reporter light, replicate 1 = 56848; firefly reporter light, replicate 2 = 56185; Renilla control light, replicate 1 = 5.34e5; Renilla control light, replicate 2 = 3.28e5. Taf3 (TBP-associated factor 3) #2 gave firefly reporter light, replicate 1 = 4.21e5; firefly reporter light, replicate 2 = 4.81e5; Renilla control light, replicate 1 = 7.73e5; Renilla control light, replicate 2 = 7.73e5. Silencing of CG33259 #1 came out at: firefly reporter light, replicate 1 = 3.42e5; firefly reporter light, replicate 2 = 2.48e5; Renilla control light, replicate 1 = 2.81e6; Renilla control light, replicate 2 = 2.36e6. After knock-down of CG33259 #2, the screen gave firefly reporter light, replicate 1 = 5.90e5; firefly reporter light, replicate 2 = 4.44e5; Renilla control light, replicate 1 = 1.67e6; Renilla control light, replicate 2 = 1.58e6. CG6638 #1 gave firefly reporter light, replicate 1 = 1.51e5; firefly reporter light, replicate 2 = 1.35e5; Renilla control light, replicate 1 = 1.49e6; Renilla control light, replicate 2 = 1.31e6. Knock-down of CG6638 #2 resulted in: firefly reporter light, replicate 1 = 8.69e5; firefly reporter light, replicate 2 = 9.47e5; Renilla control light, replicate 1 = 1.30e6; Renilla control light, replicate 2 = 1.06e6.
